This note sets out measurements from article PMC2734992.

In the test the target is TK3-SH3 (SH3 domain of SmTK3) (Schistosoma mansoni). The test is described as follows: two-hybrid; comparative liquid β-Gal assay (ONPG) of AH109 cells retransformed with prey clone and bait TK3-SH3 or TK3-US-SH3; relative binding strength, n = 6.

These are yes or no findings as the source states them, for the method shown. A result given as binding can be weak or reduced; the word gives no strength.

B1: SmDia clone ID1 (domain or fragment, UniProt C0MP97 402-1067)
chain: NDGVDPDPHMNILRLDVESTVALLVDALKEADASTRVEELQAKLDAALQAKLEAEAKVQTLQSHLSSGDRSTIKLTPDILPPPSLSSSIPPPPGIPPPPPMEGVPPPPPPPPPPPPPPMGGIPPPPPPMGSIPPPPPPMGGVPPPPPGFQSSKPPDELPFGMKPKKKYTLDVPMKKANWEKIKPNMLDKDSVWVQLHEDELEYGDLLKNLSAQFSTKPAKVMVSDSTSDGAAAAGNLQGIQSRKTKKLRYLDDKVAQNLSILLGSLKVPYDELRRRILTVDESLLTPNMLEQLVKALPEPSVISKISSLKDEYEALAEPEQFVCKVSDIKKLIPRLNSILFKMKFNEKLSEVKPEIVDVDEALQEIHFSKHFKRILELVLLLGNYMNAGSRNAEAIGFEISFLTKLEATKDVSNSQTLLHFLIGSLDRKFPETVKGFLDDFSHVERACRVSEDSLKANIAEMKKSVSNIDTDLKTYKAQEPNDNYIPVMQDFLVSAKEQLSQLEMMHKRMQDKFVTVSKYLAFDPNKYHMENLFSDLKDFHVAFKRSASDLAKKHALEEKMKKARDEQARRQREREDKAILNSSGPRAPTEEEGNVIDNLMEALKSGAAFANRGERSAVRRNRNRVSPAAANLASVASPSAIRQRQLMRARSRNYGDLPRSVVDVA
Take B1: the binding result is “binds”.

B2: SmDia clone ID2 (domain or fragment, UniProt C0MP97 432-1067)
chain: ADASTRVEELQAKLDAALQAKLEAEAKVQTLQSHLSSGDRSTIKLTPDILPPPSLSSSIPPPPGIPPPPPMEGVPPPPPPPPPPPPPPMGGIPPPPPPMGSIPPPPPPMGGVPPPPPGFQSSKPPDELPFGMKPKKKYTLDVPMKKANWEKIKPNMLDKDSVWVQLHEDELEYGDLLKNLSAQFSTKPAKVMVSDSTSDGAAAAGNLQGIQSRKTKKLRYLDDKVAQNLSILLGSLKVPYDELRRRILTVDESLLTPNMLEQLVKALPEPSVISKISSLKDEYEALAEPEQFVCKVSDIKKLIPRLNSILFKMKFNEKLSEVKPEIVDVDEALQEIHFSKHFKRILELVLLLGNYMNAGSRNAEAIGFEISFLTKLEATKDVSNSQTLLHFLIGSLDRKFPETVKGFLDDFSHVERACRVSEDSLKANIAEMKKSVSNIDTDLKTYKAQEPNDNYIPVMQDFLVSAKEQLSQLEMMHKRMQDKFVTVSKYLAFDPNKYHMENLFSDLKDFHVAFKRSASDLAKKHALEEKMKKARDEQARRQREREDKAILNSSGPRAPTEEEGNVIDNLMEALKSGAAFANRGERSAVRRNRNRVSPAAANLASVASPSAIRQRQLMRARSRNYGDLPRSVVDVA
Take B2: the binding entry is reported as “binds”.
